# Results are given in words; binding and its absence hold for the method and conditions named. In cells and extracts the contact can be indirect. Binding can be weak; no strength is given.
# The chains behind the UniProt entries cited, without tags or fusion partners. Where a name states a change or a piece, a line headed by the entry shows the natural chain unless it says otherwise.
# UniProt Q7Z434: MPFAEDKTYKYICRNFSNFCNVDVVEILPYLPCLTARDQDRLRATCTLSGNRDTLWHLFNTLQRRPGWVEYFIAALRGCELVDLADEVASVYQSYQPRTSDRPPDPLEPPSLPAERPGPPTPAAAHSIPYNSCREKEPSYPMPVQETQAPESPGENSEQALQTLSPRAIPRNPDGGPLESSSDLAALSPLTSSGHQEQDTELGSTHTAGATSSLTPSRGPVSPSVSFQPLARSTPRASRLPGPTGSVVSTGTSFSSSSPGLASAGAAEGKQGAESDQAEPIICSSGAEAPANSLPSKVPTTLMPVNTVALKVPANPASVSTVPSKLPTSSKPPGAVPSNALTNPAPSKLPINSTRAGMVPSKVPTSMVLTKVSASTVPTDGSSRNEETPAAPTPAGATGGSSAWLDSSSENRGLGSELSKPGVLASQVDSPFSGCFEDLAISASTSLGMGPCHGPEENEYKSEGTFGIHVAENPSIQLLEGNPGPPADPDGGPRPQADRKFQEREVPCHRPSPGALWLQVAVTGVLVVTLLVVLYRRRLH
# UniProt Q14653: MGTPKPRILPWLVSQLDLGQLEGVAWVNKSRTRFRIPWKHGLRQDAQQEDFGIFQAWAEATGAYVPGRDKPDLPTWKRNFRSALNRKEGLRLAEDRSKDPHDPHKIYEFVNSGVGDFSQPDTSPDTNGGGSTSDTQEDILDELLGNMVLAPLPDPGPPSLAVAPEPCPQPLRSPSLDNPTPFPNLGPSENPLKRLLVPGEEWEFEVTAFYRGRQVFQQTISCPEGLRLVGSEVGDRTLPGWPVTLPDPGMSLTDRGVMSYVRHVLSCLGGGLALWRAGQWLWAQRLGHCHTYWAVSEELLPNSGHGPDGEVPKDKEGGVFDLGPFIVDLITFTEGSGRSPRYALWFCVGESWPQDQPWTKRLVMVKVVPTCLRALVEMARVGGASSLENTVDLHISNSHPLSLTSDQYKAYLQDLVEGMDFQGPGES
# UniProt Q9UHD2: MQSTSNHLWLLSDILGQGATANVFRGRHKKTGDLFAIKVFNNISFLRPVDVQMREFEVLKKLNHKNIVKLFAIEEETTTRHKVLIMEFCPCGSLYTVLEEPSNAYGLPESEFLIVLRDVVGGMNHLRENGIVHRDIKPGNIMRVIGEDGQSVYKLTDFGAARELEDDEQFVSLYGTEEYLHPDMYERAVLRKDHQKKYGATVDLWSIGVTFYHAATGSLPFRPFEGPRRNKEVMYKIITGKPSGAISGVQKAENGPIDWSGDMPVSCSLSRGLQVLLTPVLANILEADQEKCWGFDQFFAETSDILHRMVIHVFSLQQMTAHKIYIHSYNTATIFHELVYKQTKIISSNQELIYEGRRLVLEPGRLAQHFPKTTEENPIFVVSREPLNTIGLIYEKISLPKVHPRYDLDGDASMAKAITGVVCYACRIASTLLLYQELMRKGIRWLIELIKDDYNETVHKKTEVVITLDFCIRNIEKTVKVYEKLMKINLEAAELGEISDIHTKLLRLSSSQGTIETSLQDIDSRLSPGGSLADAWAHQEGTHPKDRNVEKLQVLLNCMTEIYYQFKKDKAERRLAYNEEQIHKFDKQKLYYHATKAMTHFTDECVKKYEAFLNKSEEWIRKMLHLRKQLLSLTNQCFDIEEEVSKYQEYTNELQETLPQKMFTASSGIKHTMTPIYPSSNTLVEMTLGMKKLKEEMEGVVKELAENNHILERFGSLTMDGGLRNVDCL
# UniProt Q13114: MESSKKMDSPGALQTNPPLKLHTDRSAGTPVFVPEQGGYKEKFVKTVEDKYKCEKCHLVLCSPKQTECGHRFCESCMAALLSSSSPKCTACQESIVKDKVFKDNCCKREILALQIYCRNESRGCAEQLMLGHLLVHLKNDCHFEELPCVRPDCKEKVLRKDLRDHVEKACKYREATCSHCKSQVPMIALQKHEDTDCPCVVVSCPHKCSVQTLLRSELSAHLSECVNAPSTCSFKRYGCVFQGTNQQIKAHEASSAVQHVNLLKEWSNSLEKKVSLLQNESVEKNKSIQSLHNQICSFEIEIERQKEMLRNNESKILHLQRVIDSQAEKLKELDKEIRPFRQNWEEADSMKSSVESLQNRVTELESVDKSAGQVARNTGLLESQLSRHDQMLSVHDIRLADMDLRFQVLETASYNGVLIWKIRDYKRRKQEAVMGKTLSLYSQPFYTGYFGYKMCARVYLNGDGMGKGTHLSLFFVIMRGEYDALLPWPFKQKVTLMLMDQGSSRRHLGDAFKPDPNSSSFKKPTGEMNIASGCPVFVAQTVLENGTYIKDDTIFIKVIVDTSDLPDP
# Biological target: GST-MAVS (UniProt Q7Z434)
# Test: pull-down; purified recombinant GST-MAVS on glutathione agarose beads, incubated with lysate of cells transfected with Flag-TRAF3, Flag-TBK1, Flag-IRF3 and/or M-HA; immunoblot; only the target purified
row,Substance,binding
1,Flag-IRF3 (from UniProt Q14653 1-427),binds
2,Flag-TBK1 (from UniProt Q9UHD2 1-729),binds
3,Flag-TRAF3 (from UniProt Q13114 1-568),binds
